{"source": "patent US5128331A", "about": "“Method for lowering plasma lipid levels or blood pressure” (priority 1988, dated 1992)", "system": "spontaneously hypertensive rat (SHR)", "assay": "Oral hypotensive activity in spontaneously hypertensive rats (SHR)", "type": "in vivo", "conditions": "2 hours post dose, Table 5", "procedure": "The spontaneously hypertensive rat (SHR) is a well established animal model of human arterial hypertension.\nIn screening experiments various gem-diphosphonates were dissolved in Tween-80 and administered orally to SH rats. Blood pressure was monitored hourly using a tailcuff method."}
{"smiles": "COC(=O)C1=C(C)NC(C)=C(C(=O)OC)C1c1ccccc1[N+](=O)[O-]", "note": "[Nifedipine, reference compound]", "values": [{"measurement": "Percent change in blood pressure", "value": -47, "unit": "%"}]}
